In article PMC4589357, “The Role of Electrostatic Interactions in Binding of Histone H3K4me2/3 to the Sgf29 Tandem Tudor Domain” (PLoS ONE, 2015):

Assay: CD spectroscopy of Sgf29 and variants
Format: physicochemical, Homo sapiens
Conditions: 0.1 mg ml^-1 protein, 10 mM NaH2PO4 pH 7.5, 180–260 nm, average of 10 measurements; multiple batches

| Molecule | CD spectrum compared to WT Sgf29 |
| --- | --- |
| D266E: Sgf29 variant, substitution of D266 by glutamic acid (protein, left off: 6xHis, end not stated, cleaved, Sgf29 variant, substitution of D266 by glutamic acid) RRGVLMTLLQQSAMTLPLWIGKPGDKPPPLCGAIPASGDYVARPGDKVAARVKAVDGDEQWILAEVVSYSHATNKYEVDDIDEEGKERHTLSRRRVIPLPQWKANPETDPEALFQKEQLVLALYPQTTCFYRALIHAPPQRPQDDYSVLFEETSYADGYSPPLNVAQRYVVACKEPKKK | very similar CD spectra |
| D266N: Sgf29 variant, D266 substituted by asparagine (protein, left off: 6xHis, end not stated, cleaved, Sgf29 variant, D266 substituted by asparagine) RRGVLMTLLQQSAMTLPLWIGKPGDKPPPLCGAIPASGDYVARPGDKVAARVKAVDGDEQWILAEVVSYSHATNKYEVDDIDEEGKERHTLSRRRVIPLPQWKANPETDPEALFQKEQLVLALYPQTTCFYRALIHAPPQRPQDDYSVLFENTSYADGYSPPLNVAQRYVVACKEPKKK | slightly altered spectrum |
| D266A: Sgf29 variant, D266 substituted by alanine (protein, left off: 6xHis, end not stated, cleaved, Sgf29 variant, D266 substituted by alanine) RRGVLMTLLQQSAMTLPLWIGKPGDKPPPLCGAIPASGDYVARPGDKVAARVKAVDGDEQWILAEVVSYSHATNKYEVDDIDEEGKERHTLSRRRVIPLPQWKANPETDPEALFQKEQLVLALYPQTTCFYRALIHAPPQRPQDDYSVLFEATSYADGYSPPLNVAQRYVVACKEPKKK | significantly different spectra |
| D266F: Sgf29 variant, D266 substituted by phenylalanine (protein, left off: 6xHis, end not stated, cleaved, Sgf29 variant, D266 substituted by phenylalanine) RRGVLMTLLQQSAMTLPLWIGKPGDKPPPLCGAIPASGDYVARPGDKVAARVKAVDGDEQWILAEVVSYSHATNKYEVDDIDEEGKERHTLSRRRVIPLPQWKANPETDPEALFQKEQLVLALYPQTTCFYRALIHAPPQRPQDDYSVLFEFTSYADGYSPPLNVAQRYVVACKEPKKK | significantly different spectra |
| D266Y: Sgf29 variant, D266 substituted by tyrosine (protein, left off: 6xHis, end not stated, cleaved, Sgf29 variant, D266 substituted by tyrosine) RRGVLMTLLQQSAMTLPLWIGKPGDKPPPLCGAIPASGDYVARPGDKVAARVKAVDGDEQWILAEVVSYSHATNKYEVDDIDEEGKERHTLSRRRVIPLPQWKANPETDPEALFQKEQLVLALYPQTTCFYRALIHAPPQRPQDDYSVLFEYTSYADGYSPPLNVAQRYVVACKEPKKK | significantly different spectra |
| D266W: Sgf29 variant, D266 substituted by tryptophan (protein, left off: 6xHis, end not stated, cleaved, Sgf29 variant, D266 substituted by tryptophan) RRGVLMTLLQQSAMTLPLWIGKPGDKPPPLCGAIPASGDYVARPGDKVAARVKAVDGDEQWILAEVVSYSHATNKYEVDDIDEEGKERHTLSRRRVIPLPQWKANPETDPEALFQKEQLVLALYPQTTCFYRALIHAPPQRPQDDYSVLFEWTSYADGYSPPLNVAQRYVVACKEPKKK | significantly different spectra |
| Y238F: Sgf29 variant, Y238 substituted by phenylalanine (protein, left off: 6xHis, end not stated, cleaved, Sgf29 variant, Y238 substituted by phenylalanine) RRGVLMTLLQQSAMTLPLWIGKPGDKPPPLCGAIPASGDYVARPGDKVAARVKAVDGDEQWILAEVVSYSHATNKYEVDDIDEEGKERHTLSRRRVIPLPQWKANPETDPEALFQKEQLVLALFPQTTCFYRALIHAPPQRPQDDYSVLFEDTSYADGYSPPLNVAQRYVVACKEPKKK | ranging from wild-type like to a distinctly altered spectrum |

Some compounds share one wording; it may come from a single statement.
